# Data as given in PubChem BioAssay AID504784 (Drosophila RNAi Screening Center, 2011)
# Purpose: 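Fly genes whose silencing alters how much lipid cells keep in droplets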 (primary screen)
# Cell system: Drosophila Kc167 embryonic cells
# Knock-down reagent: long dsRNA against Drosophila genes, about 250 ng dsRNA per well
# Duration: 4 days
# Treatment: cells fed 400 µM oleic acid bound to BSA
# Measured: 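Microscope images give a droplet-to-nucleus area ratio, taken as log and converted to a screen-wide B-score; higher values mean greater lipid storage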
# Reading the numbers: droplet/nuclear area B-score: higher = more stored lipid (overstorage)
# The deposit covers about 17,000 reagents; shown is an unselected part of those that have a named target and a result. 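Each column is one replicate's B-score; the combined score over replicates was not deposited, so single values may mislead.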
gene knocked down,DRSC id,"droplet/nuclear area B-score, replicate 1","droplet/nuclear area B-score, replicate 2","droplet/nuclear area B-score, replicate 3"
Iru (Iruka),DRSC14457,3.31,1.32,
l(1)G0004 (lethal (1) G0004),DRSC20486,0.774,-0.48,
CG13813,DRSC10068,0.854,-0.46,
Pfdn6 (Prefoldin 6),DRSC10915,2.07,-2.05,
CG13038,DRSC09919,-0.567,0.00294,
Tis11 (Tis11 zinc finger protein),DRSC20293,3.89,2.09,1.86
Tis11 (Tis11 zinc finger protein),DRSC23110,-0.395,-0.948,
sni (sniffer),DRSC17770,-0.108,0.211,-1.62
CG7806,DRSC03071,-0.58,-2.86,
CG11436,DRSC17783,-1.29,,
CG13728,DRSC10056,0.576,0.998,
Dlc90F (Dynein light chain 90F),DRSC16649,0.492,0.13,
IntS9 (Integrator 9),DRSC10493,0,0.599,0.602
CG14854,DRSC14978,1.12,-0.896,
ssp6 (short spindle 6),DRSC08791,-0.0726,-0.303,
ssp6 (short spindle 6),DRSC10677,0.621,0.674,
CG33639,DRSC19966,0.91,-0.0912,0.0337
CG33639,DRSC22820,-1.1,-2.81,
CG33998,DRSC05747,0.603,1.06,
bora (aurora borealis),DRSC10744,-0.815,-0.354,-1.09
CG4502,DRSC02755,-1.38,-2.84,
CG4502,DRSC23237,0.872,-0.414,
PHDP (Putative homeodomain protein),DRSC04635,0.408,0.625,
CG33143,DRSC04151,0.106,1.72,
CG33143,DRSC04454,0.232,0.322,
CG12481,DRSC19461,-0.592,-1.24,
Bacc (Bacchus),DRSC00735,1.16,0.447,
GluRIID (Glutamate receptor IID),DRSC16723,0.0429,-0.0745,
CG9396,DRSC16487,-0.299,0.406,
tai (taiman),DRSC02207,0.492,0.122,
tai (taiman),DRSC02673,-0.816,-0.458,
Proc (Proctolin),DRSC03009,1.09,-0.843,
Proc (Proctolin),DRSC22998,0.0672,-0.692,
CG15199,DRSC19646,-3.2,1.8,-1.35
ND-23 (NADH dehydrogenase (ubiquinone) 23 kDa subunit),DRSC15526,1.84,4.23,
CG33483,DRSC14019,2.22,1.01,
CG5934,DRSC15922,0.128,0.0212,
Cyp311a1 (Cytochrome P450 311a1),DRSC20239,-0.151,-0.00119,0.427
Daao2 (D-amino acid oxidase 2),DRSC02135,0.203,1.95,
CG12194,DRSC00345,0.358,0.256,
CG6688,DRSC16094,-1.55,0.403,
CG33109,DRSC16533,-1.94,0.145,
CG6843,DRSC10725,1.3,0.04,
Rab5,DRSC00777,0.792,0.392,
wb (wing blister),DRSC01375,-6.64,-4.22,
wb (wing blister),DRSC03634,-0.368,-0.561,
wb (wing blister),DRSC23003,-1.61,-1.09,
CG18265,DRSC10310,0.936,1.12,
Cpr97Ea (Cuticular protein 97Ea),DRSC15974,-0.398,0.824,
CG42500,DRSC14822,1.59,1.97,
CG2641,DRSC15441,-1.07,0.652,
Cyp6a22 (Cytochrome P450 6a22),DRSC07382,-0.347,-1.42,
CG6271,DRSC16006,-1.98,-0.688,
ppk18 (pickpocket 18),DRSC02216,1.36,-0.129,
Hydr2 (alpha/beta hydrolase2),DRSC00607,-0.0133,-0.195,
Naa60 (N(alpha)-acetyltransferase 60),DRSC10301,1.55,1.09,
CG16741,DRSC06622,3.15,0.538,
Brd8 (Bromodomain containing 8),DRSC14866,-0.492,,
CheB53a (Chemosensory protein B 53a),DRSC06625,-0.44,2.86,
MtnC (Metallothionein C),DRSC22879,0.172,0.0327,
La (La autoantigen-like),DRSC03358,1.25,0.285,
Mur82C (Mucin related 82C),DRSC12011,1.17,0.852,
Mur82C (Mucin related 82C),DRSC12212,0.641,0.998,0.797
Ku80,DRSC02699,0.494,-1.03,
Hsp60A (Heat shock protein 60A),DRSC20254,-1.37,0.109,-0.454
mamo (maternal gene required for meiosis),DRSC19370,-1.57,-2.11,
"ATPsynE (ATP synthase, subunit E)",DRSC15476,2.84,0.132,
CG12849,DRSC04129,0.236,0.0453,
Prtl99C (Protamine-like 99C),DRSC15049,-0.0547,-0.291,
CG17883,DRSC07838,0.213,-0.0334,
Eig71Eh,DRSC11155,-0.58,-0.28,
CenB1A (Centaurin beta 1A),DRSC16923,-0.0611,0.385,-0.0844
ksr (kinase suppressor of ras),DRSC12379,-1.29,1.39,
CG9875,DRSC04585,-0.618,-0.0811,
lectin-21Cb,DRSC00355,-0.232,-0.414,
Dop2R (Dopamine 2-like receptor),DRSC20683,0.792,0.79,
CG11920,DRSC14439,2.93,0.718,
CG32809,DRSC18507,7.69,5.19,-1.61
CG32809,DRSC18562,-0.126,1.22,
CG32809,DRSC18592,-2.15,0.674,
Ir64a (Ionotropic receptor 64a),DRSC09759,0.431,-0.647,
Ir64a (Ionotropic receptor 64a),DRSC09760,-0.58,-1.22,
CG12880,DRSC14568,-0.495,0.688,
Ect3 (Ectoderm-expressed 3),DRSC15462,-0.0332,3.5,
CG15209,DRSC19655,-1.5,1.27,-0.0331
CG3635,DRSC03729,-0.959,3.54,
CG7059,DRSC16187,-0.471,-0.932,
CG8230,DRSC05931,0.873,-0.19,
ptc (patched),DRSC05117,-0.00715,0.724,
ptc (patched),DRSC07669,-2.71,-0.371,
"Alg12 (Alg12 alpha-1,6-mannosyltransferase)",DRSC16416,-0.179,-1.88,
Lectin-galC1 (Galactose-specific C-type lectin),DRSC03362,-0.805,0.441,
CG11710,DRSC20485,-0.207,0.78,
Wdr24 (WD repeat domain 24),DRSC14151,1.19,-0.688,
Ir94d (Ionotropic receptor 94d),DRSC21568,0.192,0.551,
Nufip,DRSC10397,0.776,0.0075,-1.74
CG2906,DRSC06841,0.0186,2.01,
CG13631,DRSC14632,1.4,0.167,
CG13631,DRSC23168,-0.02,1.51,
CG31704,DRSC22118,0.435,0.448,
link,DRSC06368,-0.176,-0.363,
CG8157,DRSC07085,-0.0697,0.429,
CG8157,DRSC21595,0.376,-0.0218,
mim (missing-in-metastasis),DRSC05013,0.141,-3.28,
mim (missing-in-metastasis),DRSC23045,-0.0636,-0.381,

5 entries from above, set out differently.
Tis11 (Tis11 zinc finger protein) [DRSC23110]
- droplet/nuclear area B-score, replicate 1: -0.395
- droplet/nuclear area B-score, replicate 2: -0.948

sni (sniffer) [DRSC17770]
- droplet/nuclear area B-score, replicate 1: -0.108
- droplet/nuclear area B-score, replicate 2: 0.211
- droplet/nuclear area B-score, replicate 3: -1.62

CG7806 [DRSC03071]
- droplet/nuclear area B-score, replicate 1: -0.58
- droplet/nuclear area B-score, replicate 2: -2.86

CG11436 [DRSC17783]
- droplet/nuclear area B-score, replicate 1: -1.29

CG13728 [DRSC10056]
- droplet/nuclear area B-score, replicate 1: 0.576
- droplet/nuclear area B-score, replicate 2: 0.998
